Results are given in words; binding and its absence hold for the method and conditions named. Some binding calls cover weakened binding; strength is not graded here. For part of these data: Where a sequence is shown, tags or fusion partners need not be part of it.
Experiments:
FLAG-SREBP2 (mature) [1] = molecular target: T1, FLAG-SREBP2 (mature) (UniProt Q12772); experiment: FLAG IP of cotransfected 293T cells, immunoblot (FIG. 2D)
T1 sequence (looked up): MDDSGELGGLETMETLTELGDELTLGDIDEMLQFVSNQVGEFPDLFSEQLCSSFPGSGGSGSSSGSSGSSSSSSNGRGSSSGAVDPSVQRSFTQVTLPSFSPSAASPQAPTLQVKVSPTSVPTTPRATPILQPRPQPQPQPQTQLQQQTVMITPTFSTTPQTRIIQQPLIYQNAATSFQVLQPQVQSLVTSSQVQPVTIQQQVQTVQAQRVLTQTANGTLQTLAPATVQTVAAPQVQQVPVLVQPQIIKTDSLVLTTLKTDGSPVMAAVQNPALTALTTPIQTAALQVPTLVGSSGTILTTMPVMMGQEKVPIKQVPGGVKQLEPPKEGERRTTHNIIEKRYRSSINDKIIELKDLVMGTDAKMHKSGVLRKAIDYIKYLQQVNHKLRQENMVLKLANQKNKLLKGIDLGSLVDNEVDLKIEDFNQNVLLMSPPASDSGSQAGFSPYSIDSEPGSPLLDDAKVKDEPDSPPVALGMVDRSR

FLAG-SREBP2 (mature) [2] = molecular target: T1, FLAG-SREBP2 (mature); experiment: FLAG IP of transfected 293T cells, immunoblot (FIG. 2D)
[3] = molecular target: T2, SREBP1 mature form, endogenous (human) (UniProt P36956); experiment: anti-DAXX IP of MDA-MB-231 cytoplasmic and nuclear extracts and of 293T lysates, immunoblot
T2 sequence (looked up): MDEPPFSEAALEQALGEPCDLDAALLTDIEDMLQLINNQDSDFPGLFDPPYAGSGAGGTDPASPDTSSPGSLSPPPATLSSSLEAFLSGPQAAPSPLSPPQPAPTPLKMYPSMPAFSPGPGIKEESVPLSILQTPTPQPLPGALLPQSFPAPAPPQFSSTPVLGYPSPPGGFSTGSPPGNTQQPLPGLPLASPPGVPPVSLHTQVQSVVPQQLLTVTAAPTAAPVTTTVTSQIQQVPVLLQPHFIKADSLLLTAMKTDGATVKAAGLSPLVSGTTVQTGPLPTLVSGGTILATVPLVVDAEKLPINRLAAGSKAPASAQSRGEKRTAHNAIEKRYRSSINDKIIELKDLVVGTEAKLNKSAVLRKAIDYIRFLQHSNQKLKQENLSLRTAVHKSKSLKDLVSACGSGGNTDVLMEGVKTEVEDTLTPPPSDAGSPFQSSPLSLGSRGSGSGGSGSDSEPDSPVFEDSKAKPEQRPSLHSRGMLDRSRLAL

[4] = molecular target: T3, SREBP1 precursor (full-length) (human) (UniProt P36956); experiment: as above
T3 sequence (looked up): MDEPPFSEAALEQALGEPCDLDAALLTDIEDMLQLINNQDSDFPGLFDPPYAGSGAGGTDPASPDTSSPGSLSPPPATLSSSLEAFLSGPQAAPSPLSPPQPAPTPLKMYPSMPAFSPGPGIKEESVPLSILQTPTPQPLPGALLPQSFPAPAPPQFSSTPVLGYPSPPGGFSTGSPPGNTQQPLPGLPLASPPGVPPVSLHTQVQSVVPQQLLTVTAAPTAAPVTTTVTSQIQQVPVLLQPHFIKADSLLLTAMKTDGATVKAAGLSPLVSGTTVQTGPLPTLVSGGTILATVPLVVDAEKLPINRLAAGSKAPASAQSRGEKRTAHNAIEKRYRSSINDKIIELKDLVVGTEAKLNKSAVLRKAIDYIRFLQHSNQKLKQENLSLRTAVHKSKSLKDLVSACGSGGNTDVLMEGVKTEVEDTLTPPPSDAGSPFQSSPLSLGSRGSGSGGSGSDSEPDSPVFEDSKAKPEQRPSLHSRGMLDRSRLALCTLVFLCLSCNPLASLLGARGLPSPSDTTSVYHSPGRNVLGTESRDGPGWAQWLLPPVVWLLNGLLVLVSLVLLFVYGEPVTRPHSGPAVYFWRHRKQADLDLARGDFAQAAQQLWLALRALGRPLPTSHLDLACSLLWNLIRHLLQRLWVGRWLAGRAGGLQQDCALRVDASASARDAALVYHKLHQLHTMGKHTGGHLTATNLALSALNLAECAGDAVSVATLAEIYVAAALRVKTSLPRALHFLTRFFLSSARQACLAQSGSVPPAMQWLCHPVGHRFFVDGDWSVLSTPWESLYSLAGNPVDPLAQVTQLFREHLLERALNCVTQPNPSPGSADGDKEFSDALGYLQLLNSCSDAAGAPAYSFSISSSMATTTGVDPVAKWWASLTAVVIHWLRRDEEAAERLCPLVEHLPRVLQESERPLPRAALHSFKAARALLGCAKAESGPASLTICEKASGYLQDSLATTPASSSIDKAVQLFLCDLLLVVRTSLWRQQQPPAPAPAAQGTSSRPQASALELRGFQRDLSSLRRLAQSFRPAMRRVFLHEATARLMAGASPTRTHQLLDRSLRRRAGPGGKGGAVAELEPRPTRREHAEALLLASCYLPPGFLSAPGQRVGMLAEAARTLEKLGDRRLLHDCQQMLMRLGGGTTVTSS

FLAG-SREBP2 (mature) [5] = molecular target: T1, FLAG-SREBP2 (mature); experiment: anti-DAXX IP of lysates of 293T cells transfected with mature SREBP2, immunoblot (FIG. 13B)
[6] = molecular target: T4, mature SREBP1c (Plasmid #26802) (UniProt P36956); experiment: anti-DAXX IP of lysates of 293T cells transfected with mature SREBP1c, immunoblot (FIG. 13B)
T4 sequence (looked up): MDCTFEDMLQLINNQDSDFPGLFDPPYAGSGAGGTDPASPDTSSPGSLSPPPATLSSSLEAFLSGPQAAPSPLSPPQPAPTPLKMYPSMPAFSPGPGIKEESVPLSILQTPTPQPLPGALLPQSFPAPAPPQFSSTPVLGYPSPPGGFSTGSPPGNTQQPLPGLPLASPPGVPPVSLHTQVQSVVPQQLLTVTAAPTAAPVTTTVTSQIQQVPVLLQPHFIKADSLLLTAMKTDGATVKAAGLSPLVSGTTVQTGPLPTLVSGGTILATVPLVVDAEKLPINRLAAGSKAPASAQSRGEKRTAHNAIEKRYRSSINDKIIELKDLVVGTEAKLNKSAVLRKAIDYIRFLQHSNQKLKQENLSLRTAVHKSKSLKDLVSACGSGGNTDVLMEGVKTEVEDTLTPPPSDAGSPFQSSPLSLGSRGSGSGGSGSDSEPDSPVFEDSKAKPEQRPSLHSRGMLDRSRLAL

[7] = molecular target: T2, SREBP1 mature form, endogenous (human); experiment: IP of MDA-MB-231 cytoplasmic and nuclear extracts with a mouse anti-DAXX mAb, immunoblot (FIG. 13A)
[8] = molecular target: T3, SREBP1 precursor (full-length) (human); experiment: as above
FLAG-SREBP2 (mature) [9] = molecular target: T1, FLAG-SREBP2 (mature); experiment: FLAG IP of cotransfected 293T cells, immunoblot (FIG. 2B lane 16)
FLAG-SREBP2 (mature) [10] = molecular target: T1, FLAG-SREBP2 (mature); experiment: anti-FLAG IP of 293T cells cotransfected with GFP-DAXX constructs and FLAG-SREBP2 (FIG. 6A)
FLAG-SREBP2 (mature) [11] = molecular target: T1, FLAG-SREBP2 (mature); experiment: FLAG IP of 293T cells cotransfected with FLAG-SREBP2 (mature) and GFP-DAXX constructs, immunoblot

GFP-DAXX S561A (from UniProt Q9UER7 1-740)
binding (FLAG-SREBP2 (mature) [1]): binds

DAXX (death domain-associated protein), endogenous (from UniProt Q9UER7 1-740)
binding (FLAG-SREBP2 (mature) [2]): binds | binding [3]: binds | binding [4]: binds | binding (FLAG-SREBP2 (mature) [5]): binds | binding [6]: binds | binding [7]: binds | binding [8]: binds

GFP-DAXX Y124F/Y126F (from UniProt Q9UER7 1-740)
binding (FLAG-SREBP2 (mature) [1]): binds

GFP-DAXX construct (aa 1-437) (from UniProt Q9UER7 1-437)
binding (FLAG-SREBP2 (mature) [9]): binds

GFP-DAXX K630A/K631A (from UniProt Q9UER7 1-740)
binding (FLAG-SREBP2 (mature) [1]): binds

GFP-DAXX S668A (from UniProt Q9UER7 1-740)
binding (FLAG-SREBP2 (mature) [10]): binds

GFP-DAXX DHB construct (from UniProt Q9UER7 1-144)
binding (FLAG-SREBP2 (mature) [11]): binds

GFP-wt DAXX (from UniProt Q9UER7 1-740)
binding (FLAG-SREBP2 (mature) [10]): binds

GFP-DAXX HBD construct (from UniProt Q9UER7 180-384)
binding (FLAG-SREBP2 (mature) [11]): binds
